# Literature values in patent publication US9066516B2, “Uses of thaxtomin and thaxtomin compositions as herbicides” (priority 2008, dated 2015).
# Some results were stated once for a whole list of compounds, not compound by compound. At least one structure is not confirmed: it was looked up by name or label, or the drawing left a doubt. Some ranges recur; such a range may be that of the whole group of compounds.
# System: micropropagated in vitro cultures of potato
# Settings: cited from earlier work
Compound,concentration inducing necrosis,"concentration inducing reduced shoot and root growth, root swelling"
CN1C(=O)[C@](O)(Cc2cccc(O)c2)N(C)C(=O)[C@@H]1Cc1c[nH]c2cccc([N+](=O)[O-])c12 [thaxtomin A],200-1000 ppb,10-200 ppb
CN1C(=O)[C@](O)(Cc2ccccc2)N(C)C(=O)[C@@H]1Cc1c[nH]c2cccc([N+](=O)[O-])c12 [thaxtomin B],200-1000 ppb,10-200 ppb
thaxtomin A ortho isomer,200-1000 ppb,10-200 ppb
CN1C(=O)[C@H](Cc2c[nH]c3cccc([N+](=O)[O-])c23)N(C)C(=O)[C@@H]1Cc1ccccc1 [thaxtomin D],200-1000 ppb,10-200 ppb
